One substance from publication PMC10378328 can be followed below.

Amino acid sequences for entries named in this document (tags omitted). A change or cut given only in a name is not applied to a line headed by its entry. Chains listed by the source or under a name are the forms on record and can include a tag or linker. Residues count along the entry.
UniProt P04233: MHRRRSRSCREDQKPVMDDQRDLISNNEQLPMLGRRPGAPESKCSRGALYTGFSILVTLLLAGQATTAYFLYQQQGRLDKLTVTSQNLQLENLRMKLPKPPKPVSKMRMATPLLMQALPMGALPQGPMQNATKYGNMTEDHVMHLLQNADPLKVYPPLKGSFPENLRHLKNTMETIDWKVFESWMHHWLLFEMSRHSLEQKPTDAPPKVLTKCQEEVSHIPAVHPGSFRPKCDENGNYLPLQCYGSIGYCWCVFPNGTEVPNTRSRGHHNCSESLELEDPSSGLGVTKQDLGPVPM
recombinant human soluble CD74 ectodomain fragment (sCD74), His-tagged: residues 73-296 of P04233
UniProt P01033, residues 24-207: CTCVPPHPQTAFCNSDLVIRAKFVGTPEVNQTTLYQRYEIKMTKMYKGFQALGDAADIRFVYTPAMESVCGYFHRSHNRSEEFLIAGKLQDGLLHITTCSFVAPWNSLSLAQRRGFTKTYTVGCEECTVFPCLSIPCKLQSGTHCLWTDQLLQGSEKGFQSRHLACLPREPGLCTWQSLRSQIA

Results are given in words; binding and its absence hold for the method and conditions named. For some assays here: Binding seen in cells or lysates may run through a third protein. Some results given as binding are weak or reduced against the parent protein; the word gives no strength.

Assay [1] deals with N-terminal FLAG-tagged human CD74 (human) (UniProt P04233). Briefly: co-IP; lysate of HEK293 cells transfected with FLAG-CD74 incubated with anti-FLAG antibody, then 500 ng recombinant TIMP-1 overnight at 4 °C; protein G magnetic beads; lysis buffer with 1% Triton-X 100; Western blot; only the binder purified. (In general: Immunoblotting shows a protein as a band on a membrane.)

In assay [2] the target is recombinant human soluble CD74 ectodomain fragment (sCD74), His-tagged (human) (UniProt P04233). The assay is described as follows: pull-down; His-tag Dynabeads; recombinant human His-tagged sCD74 (500 ng) and recombinant human TIMP-1 (500 ng); Western blot with anti-His and anti-TIMP-1; both purified.

With “recombinant human TIMP-1 (tissue inhibitor of metalloproteinases-1) (from UniProt P01033 24-207)”, the binding result in assay [1] and in assay [2] was “binds” each time.
